This is one part of the list.

In the test the target is T1, OsSMF1 (Oryza sativa, UniProt Q6ZLB0 1-436).
T1 sequence: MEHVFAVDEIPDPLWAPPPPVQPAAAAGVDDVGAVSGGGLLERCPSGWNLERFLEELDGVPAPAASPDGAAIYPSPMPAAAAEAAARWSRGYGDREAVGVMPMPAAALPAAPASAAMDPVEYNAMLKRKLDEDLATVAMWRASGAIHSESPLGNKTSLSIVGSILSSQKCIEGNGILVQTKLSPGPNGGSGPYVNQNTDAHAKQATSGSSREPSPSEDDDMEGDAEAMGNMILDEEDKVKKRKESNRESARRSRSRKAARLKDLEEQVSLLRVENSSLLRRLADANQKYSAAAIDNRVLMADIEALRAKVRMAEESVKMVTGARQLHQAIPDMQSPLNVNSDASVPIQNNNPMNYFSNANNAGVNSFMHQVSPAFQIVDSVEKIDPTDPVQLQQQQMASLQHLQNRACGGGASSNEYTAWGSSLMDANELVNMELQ
Description: protein-binding microarray (RPBM); PBS, 2% BSA, 51.3 ng/ul salmon testes DNA, 50 uM zinc acetate, 200 nM TF, 25 C, 1 h; high values mean tight binding. The note with it: protein: recombinant; tags: N-terminal polyhistidine and DsRed monomer fusion (pET32a); chain copies: 2; label: CyDye5-dUTP incorporated in the synthesized complementary strand; 3' TTTTT single-stranded linker to array surface; dsDNA, one strand shown. The procedure, abridged:
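In PBS with 2% BSA, salmon testes DNA and 50 µM zinc acetate, 200 nM protein was incubated on a custom Agilent array at 25 °C for 1 h and then washed off. The array had been made double-stranded by primer extension with Cy5-dUTP and blocked with 2% BSA. The proteins were transcription factors fused N-terminally to polyhistidine and DsRed, expressed in E. coli BL21-CodonPlus and purified on Ni–NTA. The binding signal is per-feature fluorescence intensity (arbitrary units) from an Axon 4000B scanner.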
“ACGCCGCCGGTTCTGTTTCGCCGTCAGCGTTGTCTTCCCCCGGAGTCACCTAGTGCAG”: the binding signal was 4440 fluorescence intensity (a.u.).
As for “GGACTGGATATTGGATAGCATGCGAAAAGTCAGTTACGTGCGGAGTCACCTAGTGCAG”, the figure is 3490 fluorescence intensity (a.u.); as for “ATACCTCTTATTAAATAGAATGTTTATGAGTGGACGTGTACGGAGTCACCTAGTGCAG”, 3780 fluorescence intensity (a.u.); as for “GTGAATATAAAGACTGTGTCAACACGTATATGTTCATATGCGGAGTCACCTAGTGCAG”, 3340 fluorescence intensity (a.u.).
For the sequence “GGCGATAGTAACCATCTCCATCCCTTCTTCTCAGTTTAGACGGAGTCACCTAGTGCAG”, the binding signal is 3290 fluorescence intensity (a.u.).
As for “CTGCACACACGTGTCTTGCTGAATTCCTCCACCGTGGCAACGGAGTCACCTAGTGCAG”, the figure is 6480 fluorescence intensity (a.u.).
As for “ATTGCAGTGGACTGAAACATTCTTTCGCTATTTGCTGAAACGGAGTCACCTAGTGCAG”, the figure is 3590 fluorescence intensity (a.u.); as for “CCAGGTCCCAGCCAGGGGTTTATTAGCTGATTCAAGACGTCGGAGTCACCTAGTGCAG”, 14900 fluorescence intensity (a.u.).
“CTCATCTCTCTCGTTTTCCTCGCACACGCTTTTCAAACTGCGGAGTCACCTAGTGCAG”: the binding signal was 3680 fluorescence intensity (a.u.).
Consider “CATCCCTTTCATCTATTTACACCAATGACAGGTGGGTACACGGAGTCACCTAGTGCAG”, for which the binding signal was 4390 fluorescence intensity (a.u.).
With “CTAAATCTTTGCCCGTCACAGATGAGTGTTATCAGTGACGCGGAGTCACCTAGTGCAG”, the binding signal was 4140 fluorescence intensity (a.u.).
The value for “TCAAACAATAGTGTAAATATAGCTACGTAAGTTCATTGACCGGAGTCACCTAGTGCAG” was 3470 fluorescence intensity (a.u.); that for “GCAACGTTGCTGGCACGTGCGCACGAATTAGCTCTCATGACGGAGTCACCTAGTGCAG” was 3800 fluorescence intensity (a.u.).
As for “AAAACAAGGTTAGTTTGCCACCTCCTTTTCCTCTGTCGCCCGGAGTCACCTAGTGCAG”, the figure is 3180 fluorescence intensity (a.u.); as for “TACCTCGCGAGTGCTGGGGAGGATTGCGTGATCCATGTCTCGGAGTCACCTAGTGCAG”, 14800 fluorescence intensity (a.u.).
The value for “GCGCCACCCCTTCCCTCTCCCTGACACGTGGGCCCCGCACCGGAGTCACCTAGTGCAG” was 13200 fluorescence intensity (a.u.).
In the case of “CCCTGGCGCGGCTCTCGCACGCCTCGTCGGAGAACGCGCACGGAGTCACCTAGTGCAG”, the binding signal was 4040 fluorescence intensity (a.u.).
Consider “GTAAAGCACAATTCGAGGATTAGCTCCAGAATCCCAGATCCGGAGTCACCTAGTGCAG”, for which the binding signal was 5550 fluorescence intensity (a.u.).
The value for “GCCACGCGAATCCACGCCGCCGCCGCCTCTTGACCTAGCGCGGAGTCACCTAGTGCAG” was 4050 fluorescence intensity (a.u.); that for “CTTGTTTCAGTGTTGACATTGGTTATTTCTCAATTCATTCCGGAGTCACCTAGTGCAG” was 6570 fluorescence intensity (a.u.); that for “CCGGGGACTCGGCAGCGGCGGCAGATCCGGAGGCAAAGCACGGAGTCACCTAGTGCAG” was 30500 fluorescence intensity (a.u.).
As for “GTGCAGCGTGGAGACACGCTGACGCACATGCAGAAACCGACGGAGTCACCTAGTGCAG”, the figure is 3810 fluorescence intensity (a.u.).
The value for “AGCTCGATCTAGATGGCGTCATCGCTGCTATTGTCGTAGTCGGAGTCACCTAGTGCAG” was 16200 fluorescence intensity (a.u.).
Turning to “GCGGCTGAATTAATCTCCATCTGGCGAGCATCCACATCCTCGGAGTCACCTAGTGCAG”, the binding signal was 52300 fluorescence intensity (a.u.).
Consider “CCAGCTCGTGGCAATCCGACCGCCTACGTGTCCACATCGCCGGAGTCACCTAGTGCAG”, for which the binding signal was 13100 fluorescence intensity (a.u.).
As for “AGCCGCGCTGTGTGCGTGCGTGCGTGGTTGCTGCGGCTTCCGGAGTCACCTAGTGCAG”, the figure is 3330 fluorescence intensity (a.u.); as for “TATTTAGGATAAAATTTTATGAAAACATTTAAAATTTGACCGGAGTCACCTAGTGCAG”, 26200 fluorescence intensity (a.u.).
As for “TTAGATTCAGGGGTGTAAAGTTTTGGCGTGTCACATCGGGCGGAGTCACCTAGTGCAG”, the figure is 3970 fluorescence intensity (a.u.); as for “CCCGCCCACTCACCCGCCCACGCGGCTGCCAGCCTACCAACGGAGTCACCTAGTGCAG”, 3760 fluorescence intensity (a.u.).
The value for “TCGGCTGACTCGGCGACTGACCGCGCGCCACCGCCGCTGACGGAGTCACCTAGTGCAG” was 5800 fluorescence intensity (a.u.); that for “CGTGGACACGTACACTCGACTCTTTGGCAGTGGAGACTGACGGAGTCACCTAGTGCAG” was 4370 fluorescence intensity (a.u.).
For “AGCTCGCCACGCTGTGCGACATCCCCGTCGCCGTCGTGTGCGGAGTCACCTAGTGCAG”, the binding signal is 3280 fluorescence intensity (a.u.).
For the sequence “TGAGCACGAGCCCGGCTTCCTCCGGCGTCAGCGGGCACCGCGGAGTCACCTAGTGCAG”, the binding signal was 3260 fluorescence intensity (a.u.).
As for “AATATGTAACATTTTCTTTGCATACTTGAATATTGCATCACGGAGTCACCTAGTGCAG”, the figure is 3480 fluorescence intensity (a.u.); as for “CACCAATAGTGTGGATGGCGGGTGACGGTCATCGTCTCTACGGAGTCACCTAGTGCAG”, 4070 fluorescence intensity (a.u.); as for “TCTGTTCTTTTGAGTCAAATGACTTGGTGTGTGACCGTGTCGGAGTCACCTAGTGCAG”, 3140 fluorescence intensity (a.u.).
With “GAAGCTGTCATCGCTGATGCGGCGAAGAGATCATCATCACCGGAGTCACCTAGTGCAG”, the binding signal was 4450 fluorescence intensity (a.u.).
“AGCACTCCCTGGTGCCGCCGGCAGAGCTTCCTAACGTCACCGGAGTCACCTAGTGCAG”: the binding signal was 4460 fluorescence intensity (a.u.).
The value for “CAGTGCGGCAGTGGCGGGCAGTGCCACAAGCAGCGTCGACCGGAGTCACCTAGTGCAG” was 3610 fluorescence intensity (a.u.); that for “CGAAACGGCGAGAAGGGAACCGCCTCGGCCACGCTGGACCCGGAGTCACCTAGTGCAG” was 3740 fluorescence intensity (a.u.); that for “CGGTGGATCGTGACGTGCTGTGGTGGTCTCTGATCTGCTCCGGAGTCACCTAGTGCAG” was 6990 fluorescence intensity (a.u.).
As for “TGCTATGCTATGGCAAGAACATCTTGAGCCATGACATCATCGGAGTCACCTAGTGCAG”, the binding signal is 4390 fluorescence intensity (a.u.).

These data come from publication PMC7819943, “Rice protein-binding microarrays: a tool to detect cis-acting elements near promoter regions in rice”.
